In PubChem BioAssay AID190 (DTP/NCI, 2004) one finds survivor count and T/C data, which are given here for 7 compounds.

In the experiment the test system is AKR/Lw mice, AKR lymphoma ip, median survival T/C. As to the kind of experiment: NCI In Vivo Anticancer Drug Screen. Data for tumor model Lymphoma AKR (Transplanted) (intraperitoneal) in AKR/Lw mice. The note with it: T/C endpoint: median survival time, higher T/C = longer survival. Here is the method: The antitumor activity of compounds was measured in mice bearing transplantable tumors. Survival or tumor size were measured and the results are expressed as the measurement made in the treated group (T) divided by the measurement made in the vehicle treated control group (C). The tumor model used in this assay is Lymphoma AKR (Transplanted) (intraperitoneal) in AKR/Lw mice

Setting [1] is: dose: 0.1 mg/kg/injection, schedule: Q01DX009 (ip), vehicle: saline.
The mark [2] stands for this setting: dose: 0.12 mg/kg/injection, schedule: Q01DX009 (ip), vehicle: saline.
[3] abbreviates: dose: 0.5 mg/kg/injection, schedule: Q01DX009 (ip), vehicle: saline.
[4] abbreviates: dose: 1.0 mg/kg/injection, schedule: Q01DX001 (ip), vehicle: saline.
Where [5] appears, read: dose: 1.5 mg/kg/injection, schedule: Q01DX001 (ip), vehicle: saline.
Where [6] appears, read: dose: 2.0 mg/kg/injection, schedule: Q01DX001 (ip), vehicle: saline.
Where [7] appears, read: dose: 2.0 mg/kg/injection, schedule: Q04DX003 (ip), vehicle: saline.
Where [8] appears, read: dose: 4.0 mg/kg/injection, schedule: Q01DX001 (ip), vehicle: saline.
Where [9] appears, read: dose: 200.0 mg/kg/injection, schedule: Q01DX001 (ip), vehicle: saline.

The structures appear in SMILES notation. The list is a part of this screen's results and no random one: it is rich in T/C values a quarter to a half above the control, in often repeated tests (any T/C) and in doses without a T/C. Further doses and runs are listed elsewhere. T/C gives the treated animals as a percentage of the vehicle group. Some doses have a count of surviving animals in place of a T/C: the source holds a T/C of zero for them, seemingly a mark for toxic or unscored doses. Some survivor counts are full or nearly so, which does not show that the dose was tolerated: the source hardly ever lists a survival T/C far under the control, and the zero likely stands for such cases as well. Survivors were counted at the toxicity check, usually on the fifth day, unless a day is given; later deaths do not show. Schedule codes are those of the source, read here as Q, the interval in days (D) or hours (H), X, the number of doses. Some entries were tested several times; their values stand side by side, smallest first. Where survival is the endpoint, this PubChem deposit counts one and a half times the control or more as active, and values a quarter to a half above the control carry no call in these data; other NCI protocols may use other cut-offs. Some T/C values are followed by the survivors on the day toxicity was checked, most often the fifth; without a count, all were alive then. Signs of the kind (2×) give the number of equal values in this list.

In the case of `C1CN1c1nc(N2CC2)nc(N2CC2)n1`, the survivor count was 9 of 10 (dose: 0.02 mg/kg/injection, schedule: Q01DX009 (ip), vehicle: saline); 10 of 10 (dose: 0.05 mg/kg/injection, schedule: Q01DX009 (ip), vehicle: saline); 10 of 10 under setting [1]; 9 of 10 and 10 of 10 under setting [2]; 8 of 10 and 10 of 10 (dose: 0.25 mg/kg/injection, schedule: Q01DX009 (ip), vehicle: saline); 10 of 10 (dose: 0.25 mg/kg/injection, schedule: Q04DX003 (ip), vehicle: saline). Also, the survivor count under setting [3] is 2 of 10, 9 of 10, 10 of 10; the survivor count (dose: 0.5 mg/kg/injection, schedule: Q04DX003 (ip), vehicle: saline) is 8 of 10 and 10 of 10; the survivor count under setting [4] was 9 of 10; the survivor count (dose: 1.0 mg/kg/injection, schedule: Q01DX009 (ip), vehicle: saline) is 10 of 10; the survivor count (dose: 1.0 mg/kg/injection, schedule: Q04DX003 (ip), vehicle: saline) was 9 of 10 and 10 of 10; the survivor count under setting [5] is 10 of 10. In addition, the survivor count (dose: 1.6 mg/kg/injection, schedule: Q04DX003 (ip), vehicle: saline) is recorded as 9 of 10; the survivor count under setting [6] is given as 4 of 10, 6 of 10, 7 of 10; the survivor count under setting [7] was 2 of 10, 9 of 10, 10 of 10; the survivor count (dose: 3.0 mg/kg/injection, schedule: Q01DX001 (ip), vehicle: saline) was 0 of 10, 3 of 10, 4 of 10; the survivor count under setting [8] is given as 4 of 10; the survivor count (dose: 4.0 mg/kg/injection, schedule: Q04DX003 (ip), vehicle: saline) was 2 of 10 and 6 of 10. Further, the survivor count was 0 of 10 (dose: 5.0 mg/kg/injection, schedule: Q01DX009 (ip), vehicle: saline); 0 of 10 (dose: 5.0 mg/kg/injection, schedule: Q04DX003 (ip), vehicle: saline); 0 of 10 and 2 of 10 (dose: 6.0 mg/kg/injection, schedule: Q01DX001 (ip), vehicle: saline); 8 of 10 (dose: 8.0 mg/kg/injection, schedule: Q01DX001 (ip), vehicle: saline); 0 of 10 (dose: 10.0 mg/kg/injection, schedule: Q04DX003 (ip), vehicle: saline); 0 of 10 and 3 of 10 (dose: 12.0 mg/kg/injection, schedule: Q01DX001 (ip), vehicle: saline). For the same compound, the survivor count (dose: 60.0 micrograms/kg/injection, schedule: Q01DX009 (ip), vehicle: saline) is 9 of 10. The T/C is 132 % of control (dose: 0.06 mg/kg/injection, schedule: Q01DX009 (ip), vehicle: saline); 147 % of control [9 of 10 alive] under setting [1]; 97 [9 of 10 alive], 105 [9 of 10 alive], 106 % of control under setting [2]; 102 % of control [9 of 10 alive] (dose: 0.12 mg/kg/injection, schedule: Q04DX003 (ip), vehicle: saline, evaluated on day 30); 89 [8 of 10 alive], 100, 102, 113, 180 % of control (dose: 0.12 mg/kg/injection, schedule: Q04DX003 (ip), vehicle: saline, evaluated on day 60); 135 % of control (dose: 0.25 mg/kg/injection, schedule: Q01DX009 (ip), vehicle: saline, evaluated on day 45). The T/C (dose: 0.25 mg/kg/injection, schedule: Q01DX009 (ip), vehicle: saline, evaluated on day 60) was 94 and 94 % of control [9 of 10 alive]; the T/C (dose: 0.25 mg/kg/injection, schedule: Q04DX003 (ip), vehicle: saline, evaluated on day 30) is 110 % of control; the T/C (dose: 0.25 mg/kg/injection, schedule: Q04DX003 (ip), vehicle: saline, evaluated on day 60) is 89 [9 of 10 alive], 93 [9 of 10 alive], 117 % of control; the T/C (dose: 0.4 mg/kg/injection, schedule: Q04DX003 (ip), vehicle: saline) was 127 % of control; the T/C (dose: 0.5 mg/kg/injection, schedule: Q01DX001 (ip), vehicle: saline) was 100 (2×), 107, 116 [9 of 10 alive], 121 % of control; the T/C under setting [3] was 122 % of control. The T/C (dose: 0.5 mg/kg/injection, schedule: Q04DX003 (ip), vehicle: saline, evaluated on day 45) is 110 % of control; the T/C (dose: 0.5 mg/kg/injection, schedule: Q04DX003 (ip), vehicle: saline, evaluated on day 60) was 103, 107, 120 [8 of 10 alive], 134, 142, 173 % of control; the T/C (dose: 0.75 mg/kg/injection, schedule: Q04DX003 (ip), vehicle: saline) is 146 % of control; the T/C under setting [4] was 108, 121, 123, 125 [9 of 10 alive], 133 [9 of 10 alive], 147 % of control; the T/C (dose: 1.0 mg/kg/injection, schedule: Q04DX003 (ip), vehicle: saline, evaluated on day 45) is 124 % of control; the T/C (dose: 1.0 mg/kg/injection, schedule: Q04DX003 (ip), vehicle: saline, evaluated on day 60) was 132 % of control. For the same compound, the T/C was 125 % of control [9 of 10 alive] under setting [5]; 90 [9 of 10 alive], 136, 139 % of control under setting [6]; 148 % of control under setting [7]; 142 % of control under setting [8].
Consider `COc1cc2ccc(CC(=O)NCc3ccccc3)cc2cc1OC`, for which the survivor count was 10 of 10 (dose: 100.0 mg/kg/injection, schedule: Q04DX003 (ip), vehicle: other) and 10 of 10 (dose: 400.0 mg/kg/injection, schedule: Q04DX003 (ip), vehicle: other).
As for `COC(=O)C1CC(=O)C2(C)CCc3c(ccc4cc(OC)ccc34)C12` (configuration not stated), under “dose: 400.0 mg/kg/injection, schedule: Q01DX001 (sc), vehicle: steroid suspending solution”, the survivor count is 10 of 10.
Consider `CC(C)(CCCl)NCc1ccccc1`, for which the survivor count is on record as 4 of 10 under setting [9] and 0 of 10 (dose: 400.0 mg/kg/injection, schedule: Q01DX001 (ip), vehicle: saline).
As to `Cc1ccc(S(=O)(=O)Nc2ccccc2-c2nc3c(Cl)ccc(Cl)c3c(=O)o2)cc1`, the survivor count (dose: 400.0 mg/kg/injection, schedule: Q04DX003 (ip), vehicle: Klucel (hydroxypropylcellulose) (HPC)) is recorded as 10 of 10.
Consider `CCN(CC)CCOc1ccc2c(c1)C(=O)c1cc(OCCN(CC)CC)ccc1-2`, for which the survivor count is, setting by setting: (dose: 12.5 mg/kg/injection, schedule: Q01DX007 (ip), vehicle: saline) 10 of 10; (dose: 25.0 mg/kg/injection, schedule: Q01DX001 (ip), vehicle: saline) 10 of 10; (dose: 100.0 mg/kg/injection, schedule: Q01DX001 (ip), vehicle: saline) 5 of 10; (dose: 100.0 mg/kg/injection, schedule: Q01DX007 (ip), vehicle: saline) 6 of 10; under setting [9], 2 of 10; (dose: 200.0 mg/kg/injection, schedule: Q01DX007 (ip), vehicle: saline) 0 of 10.
With `CC(=O)N1C(=O)/C(=C\c2cc3c(cc2Br)OCO3)c2cc3c(cc21)OCO3`, the T/C is, setting by setting: (dose: 24.0 mg/kg/injection, schedule: Q01DX001 (ip), vehicle: water) 141 % of control; (dose: 48.0 mg/kg/injection, schedule: Q01DX001 (ip), vehicle: water) 145 % of control. Also, the survivor count (dose: 96.0 mg/kg/injection, schedule: Q01DX001 (ip), vehicle: water) was 8 of 10.
